One experiment deals with rhIDO1 (Homo sapiens, UniProt P14902). Description: Enzyme-based IDO1 activity assay (kynurenine absorbance at 492 nm). The format is biochemical. The following applies: shown when calculated IC50 >50 μM, read-out: IDO inhibition rate (%) at 50 μM. The protocol: (§1) The compounds on IDO1 or TDO activity were determined as follows: A standard reaction mixture (100 μL) containing 100 mM potassium phosphate buffer (pH 6.5), 40 mM ascorbic acid (neutralized with NaOH), 200 μg/mL catalase, 20 μM methylene blue and 0.05 μM rhIDO1 or rhTDO was added to the solution containing the substrate L-tryptophan and the test sample at a determined concentration. […] The yellow pigment derived from kynurenine was measured at 492 nm using a SYNERGY-H1 microplate reader (Biotek Instruments, Inc., Winooski, VT, USA). IC50 was analyzed using the GraphPad Prism 8.0 software (GraphPad Software, San Diego, CA, USA).

Chains of the proteins cited; added tags and fusions are not shown. Lines headed by an entry give the natural chain unless they say otherwise; changes in a name come on top.
UniProt P14902, whole entry: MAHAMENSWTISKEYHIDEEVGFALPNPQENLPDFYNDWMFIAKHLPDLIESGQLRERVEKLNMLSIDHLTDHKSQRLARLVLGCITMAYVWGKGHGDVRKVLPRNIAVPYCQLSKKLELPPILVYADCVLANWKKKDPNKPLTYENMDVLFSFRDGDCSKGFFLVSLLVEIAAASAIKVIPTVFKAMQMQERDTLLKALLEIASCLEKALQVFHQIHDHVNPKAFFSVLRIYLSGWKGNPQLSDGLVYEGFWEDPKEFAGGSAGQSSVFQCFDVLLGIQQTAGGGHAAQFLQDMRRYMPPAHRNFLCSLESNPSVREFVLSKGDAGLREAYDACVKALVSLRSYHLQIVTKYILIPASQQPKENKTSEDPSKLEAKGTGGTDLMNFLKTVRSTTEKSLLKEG
UniProt P48775: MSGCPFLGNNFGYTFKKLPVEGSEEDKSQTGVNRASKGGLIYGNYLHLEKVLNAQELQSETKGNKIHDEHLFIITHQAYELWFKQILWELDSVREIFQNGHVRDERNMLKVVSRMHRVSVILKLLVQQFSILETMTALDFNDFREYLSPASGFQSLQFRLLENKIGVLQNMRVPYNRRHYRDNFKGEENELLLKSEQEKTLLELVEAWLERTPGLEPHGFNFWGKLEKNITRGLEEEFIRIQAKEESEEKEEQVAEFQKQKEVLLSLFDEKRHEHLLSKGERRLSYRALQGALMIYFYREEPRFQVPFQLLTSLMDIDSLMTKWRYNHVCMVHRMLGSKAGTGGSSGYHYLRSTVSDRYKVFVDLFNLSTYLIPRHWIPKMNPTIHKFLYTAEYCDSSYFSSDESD

The target of another experiment is rhTDO (Homo sapiens, UniProt P48775). Description: Enzyme-based TDO activity assay (kynurenine absorbance at 492 nm). Conditions: shown when calculated IC50 >50 μM, read-out: TDO inhibition rate (%) at 50 μM. The format is biochemical. The protocol:
as §1

This passage reports inhibition results from article PMC6600671, “Design and Synthesis of Indoleamine 2,3-Dioxygenase 1 Inhibitors and Evaluation of Their Use as Anti-Tumor Agents” (Molecules, 2019).

Structures are written as SMILES.

For the molecule `Nc1nc2ccc(OC(F)(F)F)cc2s1` [DX-01-21], the inhibition – broadly, the change of the read-out against control, counted positive when it falls – at 50 µM was 9.7% on rhIDO1 and 9.2% on rhTDO.
